Source: PubChem BioAssay AID686938 (Drosophila RNAi Screening Center, 2013)

- Purpose: 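Knock-downs reducing store-operated calcium influx in Drosophila cells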 (primary screen)
- Cells: Drosophila S2R+ cells
- Reagent: long dsRNA against Drosophila genes, about 0.25 µg dsRNA per well, roughly 10,000 cells
- Duration: 5 days of knock-down before the calcium assay
- Treatment: thapsigargin (SERCA pump blocker) to empty calcium stores; entry signal taken 4 min after adding it
- Measured: 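Per-well fluo-4 fluorescence in two replicates, unnormalised, measured in resting cells and 4 min after store depletion by the SERCA blocker thapsigargin; ratio of the two present in few wells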
- Reading the numbers: calcium entry signal: higher = stronger calcium signal after store depletion; entry to resting ratio: higher = more calcium entry relative to resting level; resting calcium signal: higher = higher resting calcium signal
- Hit rule: 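Called when the plate z-score of the entry-to-rest ratio, mean of duplicates, falls below −3; wells with low overall dye signal (Fmax z below −2) or more than five off-targets excluded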
- Calls: active = strongly reduced calcium entry; inactive = no strong reduction
The screen tested about 23,000 reagents; shown is an unselected part of those that have a named target and a result. Over the whole deposit, 75 (0.33%) got an active call. 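Raw plate signals without normalisation; calls rest on plate z-scores that were not deposited; ratio present for only 364 wells.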 A number with no mark means an inactive call. Reagent sequences are not shown. Not stated in the record: the dose of the treatment.

Gene	dsRNA	calcium entry signal, replicate 1 (fluorescence units)	calcium entry signal, replicate 2 (fluorescence units)	entry to resting ratio	resting calcium signal, replicate 1 (fluorescence units)	resting calcium signal, replicate 2 (fluorescence units)
CG13127	DRSC02223	2.77e7	4.51e7		1.31e7	2.22e7
CG14797	DRSC17955	3.45e7	4.22e7	2.1	1.63e7	1.61e7
CG31279	DRSC13158	2.51e7	3.29e7		1.35e7	1.67e7
Atf3	DRSC17225	4.23e7	5.54e7	1.9	2.26e7	2.44e7
Atf3	DRSC22996	5.95e7	3.98e7		2.76e7	1.70e7
CG6290	DRSC19979	5.19e7	5.15e7		2.40e7	2.16e7
CG42367	DRSC21388	4.12e7	3.73e7		2.38e7	1.89e7
CG33262	DRSC22893	4.37e7	3.19e7		2.45e7	1.64e7
Sema5c	DRSC11279	3.39e7	4.43e7		1.71e7	2.06e7
CG15306	DRSC17993	2.20e7	4.31e7		1.09e7	1.80e7
CG15306	DRSC18240	2.15e7	5.38e7		1.15e7	3.07e7
Tmtc4	DRSC15702	3.45e7	4.91e7		1.72e7	5.54e7
slow	DRSC08589	4.50e7	3.94e7		3.01e7	1.72e7
slow	DRSC08590	1.68e7	3.01e7		8.86e6	1.32e7
CG7166	DRSC11809	3.40e7	4.49e7		1.64e7	1.98e7
sphe	DRSC20203	2.46e7	2.73e7		1.28e7	1.20e7
T48	DRSC16878	3.37e7	5.66e7		1.85e7	2.28e7
CG12926	DRSC06239	3.70e7	4.73e7		1.84e7	2.26e7
CG12926	DRSC21930	2.84e7	3.96e7		1.50e7	2.20e7
Als2	DRSC11806	3.56e7	4.16e7		1.77e7	2.74e7
CG5043	DRSC02805	4.19e7	4.05e7		1.95e7	1.83e7
HGTX	DRSC09319	3.16e7	3.48e7		1.47e7	1.54e7
HGTX	DRSC11181	4.36e7	5.57e7		2.01e7	2.32e7
CG14137	DRSC10142	3.10e7	3.40e7		1.71e7	1.52e7

A portion from the list above, for reference:
Gene	dsRNA	calcium entry signal, replicate 1 (fluorescence units)	calcium entry signal, replicate 2 (fluorescence units)	entry to resting ratio	resting calcium signal, replicate 1 (fluorescence units)	resting calcium signal, replicate 2 (fluorescence units)
Als2	DRSC11806	3.56e7	4.16e7		1.77e7	2.74e7
CG5043	DRSC02805	4.19e7	4.05e7		1.95e7	1.83e7
